From PubChem BioAssay AID2685 (National Center for Advancing Translational Sciences (NCATS), 2010) come the findings set out here.

The structures appear in SMILES notation. The list shows a part of the results. The main result of the screen is listed elsewhere. These columns were measured beside it and carry no call. The list favours compounds with an active or inconclusive main result. Words in brackets tell the shape of the fitted curve; partial curves, single points and poor fits give uncertain potencies.

A short description of this assay: qHTS Assay for Lipid Storage Modulators in Drosophila S3 Cells.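 On cell number change: cells counted by Cell Tracker Red CMTPX staining in the red channel.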 As to conditions: BODIPY lipid droplet fluorescence, 18-24 h; for cell number change: measured here: cell count max response, cells fed with added oleic acid. The method, boiled down:
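Drosophila S3 cells got compounds at several concentrations plus oleic acid (400 uM solution). Laser-scanning cytometry with 488 nm excitation read lipid droplets at 500-530 nm and cells at 575-640 nm. Percent activity was relative to 20 uM Triacsin C.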
A general note: In qHTS, concentration-response curves come from the screen itself.

Where [1] appears, read: measured here: cell number channel AC50, cells fed with added oleic acid.
Where [2] appears, read: measured here: lipid fluorescence (Fed channel) AC50, cells fed with added oleic acid.

`COC(=O)c1cc(C#N)c(=O)[nH]c1C`: the cell number change is -14.5%. Also, the half-maximal activity concentration (AC50) under setting [1] was 3.66 µM [rising, single point]. Moreover, the concentration at half-maximal activity (AC50) under setting [2] is 6.51 µM [rising, single point].

For the compound `COc1ccc(N2CCN(C(=O)c3ccc(Br)o3)CC2)cc1`, the half-maximal activity concentration (AC50) under setting [2] is 16.4 µM [rising, single point].

`O=C(Nc1nc2ccccc2s1)Nc1ccc(F)cc1F`: the cell number change came out at 10.2%. In addition, the AC50 under setting [2] is 29.1 µM [rising, single point].

Consider `COCCN(C(=O)CCC(=O)Nc1cc(C)on1)C(C(=O)NC(C)(C)C)c1ccc(OC)cc1` (stereo unspecified), for which the cell number change was found to be 19%.

`CC(=O)Nc1ccc(C)cc1`: the cell number change was -24.9%.

Take `O=C(COC(=O)c1ccccc1C(=O)c1ccc(Cl)c([N+](=O)[O-])c1)NC1CC1`: the AC50 under setting [2] was 4.61 µM [falling, single point].

On to `CC(=O)c1c(C)[nH]c(C(=O)OCC(=O)Nc2cc(C(F)(F)F)ccc2N2CCOCC2)c1C`, for which the cell number change is -4.87%.

Take `CN(CC(=O)Nc1ccccc1Br)C(=O)c1ccncc1`: the cell number change came to 14.6%. Further, the AC50 under setting [1] was 3.66 µM [rising, single point].

For `COc1ccc(OC)c(NS(=O)(=O)Cc2ccccc2)c1`, the cell number change is -1.11%.

Turning to `CN(C(=O)COc1ccc(S(=O)(=O)N2CCOCC2)cc1[N+](=O)[O-])C1CCS(=O)(=O)C1` (stereo unspecified), the cell number change is 17.4%. Also, the half-maximal activity concentration (AC50) under setting [2] is 2.31 µM [falling, partial curve].

Take `O=C(Nc1ccc2c(c1)OCO2)C(c1ccc(Cl)cc1)N1CCC2(CC1)OCCO2` (stereo unspecified): the cell number change was -28%. Also, the AC50 under setting [2] was 20.6 µM [falling, single point].

For `Cn1c(=O)oc2cc(S(=O)(=O)NCCC(=O)N3CCN(c4ccccc4F)CC3)ccc21`, the cell number change was found to be 22.5%. In addition, the concentration at half-maximal activity (AC50) under setting [2] is 23.1 µM [rising, single point].

For the compound `C=CCC(NCc1ccccc1)c1ccc(Cl)cc1` (stereo unspecified), the cell number change was -35.2%. Also, the concentration at half-maximal activity (AC50) under setting [1] was 25.9 µM [falling, partial curve]. Besides, the AC50 under setting [2] is 2.31 µM [falling, single point].

Regarding `O=C(C1CCN(S(=O)(=O)c2ccc(-n3cnnn3)cc2)CC1)N1CCN(c2ccccc2)CC1`, the cell number change is 74.9%. The AC50 under setting [1] is 29.1 µM [rising, single point].

`O=C(OCn1nnc2ccccc2c1=O)C1CCCCC1`: the cell number change was -0.233%. In addition, under setting [2], the half-maximal activity concentration (AC50) was 0.0116 µM [rising, full curve, poor fit].

Consider `Cc1cc2ncn(CCC(=O)NC3CCCC3)c2cc1C`, for which the cell number change was -30.5%.

Turning to `CNC(=O)NC(=O)CSc1cccc(C(F)(F)F)c1`, the AC50 under setting [2] was 0.092 µM [falling, full curve].

For the compound `COC(=O)N/N=C/c1ccc(-c2cc(Cl)ccc2Cl)o1`, the cell number change was -21.9%. In addition, the AC50 under setting [2] was 20.6 µM [falling, single point].

Regarding `CS(=O)(=O)c1ccc(Cl)c(C(=O)OCC(=O)NC2CCCCCCC2)c1`, the cell number change was 13.4%.

`CCc1cccc(C)c1NC(=O)c1cc(C)oc1C`: the cell number change was -13.4%. Moreover, the AC50 under setting [2] is 0.411 µM [rising, full curve, poor fit].

As to `O=C(C1CCCN1C(=O)c1cccs1)N1CCc2ccccc21` (stereo unspecified), the cell number change was -16%. Further, the AC50 under setting [2] was 0.92 µM [rising, full curve, poor fit].

For `Clc1ccccc1CN(Cc1ccccc1)C(c1cccs1)c1nnnn1C1CCCC1` (stereo unspecified), the cell number change is -34.8%. In addition, the AC50 under setting [1] was 18.4 µM [falling, partial curve, poor fit]. In addition, under setting [2], the AC50 is 1.84 µM [falling, partial curve].

On to `CN(c1ccccc1C(=O)Nc1ccccc1C(=O)NCc1ccco1)S(C)(=O)=O`, for which the cell number change came to 1.14%. Also, the AC50 under setting [2] was 10.3 µM [falling, partial curve].

For the compound `COCCC(=O)N1CCC(Oc2ccc(C(=O)N(C)C3CCCCC3)cc2)CC1`, the cell number change amounted to 8.39%. Further, the concentration at half-maximal activity (AC50) under setting [2] is 6.51 µM [falling, single point].

With `O=C1NC2(CCCCO2)CO1` (stereo unspecified), the cell number change is -6.89%. Besides, the AC50 under setting [2] is 9.2 µM [rising, partial curve, poor fit].

Regarding `CN1CCc2c(sc3c2c(=O)n(-c2ccc(Cl)cc2)c2nncn32)C1`, the cell number change is -30.1%. The AC50 under setting [1] is 29.1 µM [falling, single point].

In the case of `O=c1[nH]c2ccccc2n2c(-c3ccccc3)nnc12`, the cell number change was -24.2%. The concentration at half-maximal activity (AC50) under setting [2] is 0.00517 µM [falling, full curve, poor fit].

For the compound `Cn1cnnc1SCC(=O)Nc1ccc2nc(SCc3cccc4ccccc34)sc2c1`, the cell number change stood at 121%. For the same compound, under setting [1], the AC50 is 9.2 µM [rising, partial curve]. Moreover, the AC50 under setting [2] is 9.2 µM [rising, partial curve].

`Cc1ccccc1C(=O)Nc1nc2c(C)csc2c(=O)s1`: the cell number change was determined as 55.8%. For the same compound, the AC50 under setting [1] is 5.17 µM [rising, partial curve]. Moreover, under setting [2], the half-maximal activity concentration (AC50) is 2.31 µM [rising, single point].

For `Nc1nc(SCC(=O)N2CCc3ccccc32)[nH]c(=O)c1-c1ccccc1`, the cell number change came out at 3.17%.

As for `CC(=O)c1cc(F)c(N2CCN(C(=O)C(C)(C)C)CC2)cc1C`, the cell number change was -74%. Further, the AC50 under setting [1] is 18.4 µM [falling, single point]. For the same compound, the AC50 under setting [2] is 29.1 µM [falling, partial curve, poor fit].

With `Cc1ccc(C2CC(c3cccs3)n3nc(N)nc3N2)cc1` (stereo unspecified), the cell number change is -0.897%. In addition, under setting [2], the half-maximal activity concentration (AC50) was 29.1 µM [falling, single point].

Turning to `CC(=O)NCc1ccc(C(=O)CCl)s1`, the concentration at half-maximal activity (AC50) under setting [2] was 14.6 µM [falling, partial curve].

Consider `Cc1noc(C)c1S(=O)(=O)N(CC(=O)Nc1ccc2c(c1)OCO2)c1ccc(C(C)C)cc1`, for which the cell number change worked out at 19%. The concentration at half-maximal activity (AC50) under setting [1] is 2.91 µM [rising, single point]. For the same compound, under setting [2], the concentration at half-maximal activity (AC50) was 1.64 µM [rising, partial curve].

Regarding `C=CCc1ccc(OCCOCCN(C)C)c(OC)c1`, the cell number change is -37.8%. For the same compound, the AC50 under setting [1] was 29.1 µM [falling, single point]. The half-maximal activity concentration (AC50) under setting [2] was 29.1 µM [falling, single point].

In the case of `COc1cc(OC)c(NC(=O)/C=C/C(=O)O)cc1Cl`, the cell number change was 32.1%. The half-maximal activity concentration (AC50) under setting [1] is 1.64 µM [rising, full curve]. The AC50 under setting [2] was 0.92 µM [rising, full curve].

`CSc1nc2ncc(C#N)cn2n1`: the cell number change was 34.9%.

In the case of `C/C(=N/NC(=O)Cc1ccccc1)c1ccc(C)s1`, under setting [2], the AC50 is 0.326 µM [rising, single point].

For `CN(C)S(=O)(=O)c1ccc(SCC(=O)N2CC(=O)Nc3ccccc32)nc1`, the cell number change turned out to be 14.7%. Moreover, under setting [2], the AC50 was 25.9 µM [rising, single point].

For `COc1ccc(S(=O)(=O)CCC(=O)NCCc2cccc(C)c2)cc1`, the AC50 under setting [1] is 3.26 µM [rising, partial curve].

As to `N#C/C(=C\c1cccc(O)c1)C(=O)N1CCCCC1`, the cell number change is -27.9%. Also, the half-maximal activity concentration (AC50) under setting [2] is 14.6 µM [falling, partial curve, poor fit].

With `CSc1ccc(/C=N/N2CCN(C)CC2)cc1`, the cell number change amounted to 10.4%. The concentration at half-maximal activity (AC50) under setting [2] was 0.517 µM [falling, partial curve, poor fit].

With `CC(C)(C)NC(=O)CN(C(=O)CCC(=O)Nc1nccs1)c1ccc2c(c1)OCCO2`, the cell number change is 21.4%. Under setting [2], the AC50 was 6.51 µM [rising, single point].

`CCSC1=C(C#N)C2(CCCC2)C(C#N)=C(N)N1`: the cell number change is -41.2%. Also, the concentration at half-maximal activity (AC50) under setting [1] is 32.6 µM [falling, single point].

Take `CCc1noc(C)c1C(=O)NNC(=O)c1cc(OC)cc(OC)c1`: the cell number change is -38.2%. Also, the AC50 under setting [1] was 32.6 µM [falling, partial curve, poor fit]. Also, the half-maximal activity concentration (AC50) under setting [2] is 32.6 µM [falling, partial curve, poor fit].

Consider `Cc1ccc(NC(=O)NC(=O)c2cnccc2C(F)(F)F)c(C)c1`, for which the cell number change was -51.7%. For the same compound, the half-maximal activity concentration (AC50) under setting [1] was 14.6 µM [falling, single point]. In addition, the half-maximal activity concentration (AC50) under setting [2] was 18.4 µM [falling, single point].

Consider `Cc1cc(N2CCCC2)nc(N2C3CCC2CC(O)(c2ccc(F)cc2)C3)n1` (stereo unspecified), for which the cell number change is 4.3%. Moreover, the concentration at half-maximal activity (AC50) under setting [2] was 0.517 µM [falling, single point].

For `Cc1ccc(NC(=O)NC2CCCCC2)c(C)c1`, the cell number change is -14.3%. Besides, under setting [2], the AC50 is 6.51 µM [rising, partial curve, poor fit].

As for `Cc1nc(Oc2ccccc2)c2oc3ccccc3c2n1`, the cell number change was 154%. The half-maximal activity concentration (AC50) under setting [1] was 9.2 µM [rising, partial curve]. For the same compound, the AC50 under setting [2] was 7.31 µM [rising, partial curve].

In the case of `N/C(=N\OC(=O)c1ccc(Cl)cc1)c1cccnc1`, the cell number change turned out to be 4.34%.

`CCNC(=S)N1CCN(CC(=O)Nc2ccc(OC)cc2)CC1`: the cell number change worked out at 22.6%.

On to `Cn1c(=O)c(=O)n(C)c2cc(S(=O)(=O)N3CCN(C4CCCCC4)CC3)ccc21`, for which the cell number change is -31.3%. Moreover, the concentration at half-maximal activity (AC50) under setting [1] is 29.1 µM [falling, single point]. For the same compound, the AC50 under setting [2] was 32.6 µM [falling, single point].

Regarding `CN(C)CCCNc1oc(-c2ccc(Cl)cc2)nc1C#N`, the cell number change was -31%. Also, under setting [1], the AC50 is 20.6 µM [falling, single point]. The half-maximal activity concentration (AC50) under setting [2] was 10.3 µM [falling, single point].

As for `CCOC(=O)C1CCN(C(=O)c2ccccc2Oc2ccccc2)CC1`, the cell number change was -0.129%.

For the compound `CC(C)(C)c1cc(C(=S)N2CCCC2)cc(C(C)(C)C)c1O`, the cell number change turned out to be 12.1%. Besides, the AC50 under setting [2] is 14.6 µM [falling, single point].

Regarding `Cc1onc(-c2c(Cl)cccc2Cl)c1NC(=O)NN(C)c1ccc([N+](=O)[O-])cn1`, the cell number change was 20%. The AC50 under setting [1] is 3.26 µM [rising, single point]. Moreover, under setting [2], the AC50 is 9.2 µM [rising, single point].

As for `Cc1nc(SC(C)C(=O)NCC2CCCO2)c2cc(-c3ccccc3)sc2n1` (stereo unspecified), the cell number change is -15.3%. In addition, the concentration at half-maximal activity (AC50) under setting [2] was 7.31 µM [falling, partial curve].

Consider `Cc1cccc(-c2cc(C(=O)Nc3cccnc3)c3ccccc3n2)c1`, for which the cell number change was found to be 9.09%. Further, under setting [2], the concentration at half-maximal activity (AC50) is 20.6 µM [falling, partial curve].

As to `COC(=O)Nc1c(C(=O)OC)cc(OC)c(OC)c1OC`, the AC50 under setting [2] was 5.17 µM [falling, full curve, poor fit].

As to `COc1cnc(-c2ccccn2)nc1NC(C)C`, the cell number change was -2.31%. Moreover, the half-maximal activity concentration (AC50) under setting [1] is 0.82 µM [falling, single point]. Moreover, the AC50 under setting [2] was 2.31 µM [falling, single point].

Regarding `O=c1/c(=C\c2ccc(F)cc2)sc2n1CCCN=2`, the cell number change was -10.5%. Also, the AC50 under setting [1] was 0.00517 µM [rising, full curve, poor fit]. In addition, the AC50 under setting [2] is 0.731 µM [rising, partial curve, poor fit].

The term AC50 denotes the concentration at which the activity in the assay is half-maximal. The low end stands for activity at low concentration, the high end for activity only at high concentration.
